# Data reported in paper PMC7819943, “Rice protein-binding microarrays: a tool to detect cis-acting elements near promoter regions in rice”.
# Amino acid sequences for entries named in this document (tags omitted).
# UniProt Q0JBA9, entry or part of it: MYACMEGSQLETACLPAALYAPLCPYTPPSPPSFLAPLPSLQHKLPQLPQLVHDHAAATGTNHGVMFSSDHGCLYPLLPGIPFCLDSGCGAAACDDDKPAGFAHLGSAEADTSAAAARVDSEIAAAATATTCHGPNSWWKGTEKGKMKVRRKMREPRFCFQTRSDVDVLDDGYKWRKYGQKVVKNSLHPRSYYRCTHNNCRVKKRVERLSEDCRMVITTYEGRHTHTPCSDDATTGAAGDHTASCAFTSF
# The other results are listed elsewhere or left out.
# Target: OsWRKY34 (Oryza sativa, UniProt Q0JBA9 1-250)
# Test: protein-binding microarray (RPBM); PBS, 2% BSA, 51.3 ng/ul salmon testes DNA, 50 uM zinc acetate, 200 nM TF, 25 C, 1 h; high values mean tight binding
# Details: protein: recombinant; tags: N-terminal polyhistidine and DsRed monomer fusion (pET32a); label: CyDye5-dUTP incorporated in the synthesized complementary strand; 3' TTTTT single-stranded linker to array surface; dsDNA, one strand shown
# Summary of the method: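 Binding signal here means per-feature fluorescence intensity in arbitrary units. The values were read on an Axon 4000B scanner after a custom Agilent array, double-stranded by primer extension with Cy5-dUTP, was incubated with 200 nM protein at 25 °C for 1 h in PBS with 2% BSA, salmon testes DNA and 50 µM zinc acetate, then washed. The proteins were transcription factors with an N-terminal polyhistidine tag and DsRed, expressed in E. coli BL21-CodonPlus and purified on Ni–NTA.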
row,Sequence,binding signal
1,GCCTCGCCTCATCTCCGTCACTTTCCATTTCGCCGCAGCGCGGAGTCACCTAGTGCAG,9430 fluorescence intensity (a.u.)
2,GCTCTGCCTTTTTCTTTATTTTTTCCTCACACGGTGCTTTCGGAGTCACCTAGTGCAG,10400 fluorescence intensity (a.u.)
3,ATACCCGACACCTCTGACGGCTCCAAGCTTGCAAGTCAACCGGAGTCACCTAGTGCAG,8050 fluorescence intensity (a.u.)
4,AACTTTTAAATTTTGACGTGAAGTAACCACACCCTTCATCCGGAGTCACCTAGTGCAG,8380 fluorescence intensity (a.u.)
5,GCCATCCCCGATCGATCCCCACCCGCAGCGGCGGCGAGGCCGGAGTCACCTAGTGCAG,8140 fluorescence intensity (a.u.)
6,TATTGCCGTAAGCTCTACCTCTGTTCTTTCTTTCACTGTCCGGAGTCACCTAGTGCAG,12500 fluorescence intensity (a.u.)
7,TTGTTTACTACTCGACATCAGCGTCTCTCTACACATATATCGGAGTCACCTAGTGCAG,8040 fluorescence intensity (a.u.)
8,GATTTGTGTTCCCAGCAAGAAGCCCTTAGTCATTCTAGTCCGGAGTCACCTAGTGCAG,9180 fluorescence intensity (a.u.)
9,CGCCGTCGCCGGGGATGGCCAGCCGCTTCCATTTGCTCTTCGGAGTCACCTAGTGCAG,9900 fluorescence intensity (a.u.)
10,GCGGTGGTTGCGGATTTGTAGCTTAGAGCGCGGGGCCATGCGGAGTCACCTAGTGCAG,9620 fluorescence intensity (a.u.)
11,CTCCCACTTCGCCACCCTCACAAGTCACAACCTTCCCTCACGGAGTCACCTAGTGCAG,9160 fluorescence intensity (a.u.)
12,TTTTACGGTTTAGGGTCATGGATTAGATTCGGGTCACTTTCGGAGTCACCTAGTGCAG,9860 fluorescence intensity (a.u.)
13,ATTTTGAGCCAATTTTGATTTCCTTTACCTTTTCTGTACTCGGAGTCACCTAGTGCAG,8810 fluorescence intensity (a.u.)
14,TGGTTCTGTTTGCTTCCTATATTAATACCTTTTCAATGTACGGAGTCACCTAGTGCAG,9590 fluorescence intensity (a.u.)
15,CACCATCGTCGACCTTGATCTTGCTCCGTTCTTTGGAGCTCGGAGTCACCTAGTGCAG,9440 fluorescence intensity (a.u.)
16,ATCCCCACTCCCACTCCGGCACTTCACCAGTTCACCACCGCGGAGTCACCTAGTGCAG,8740 fluorescence intensity (a.u.)
17,GACCTTTACTTTTTCATCCTACCTAAATGCATATTCCAATCGGAGTCACCTAGTGCAG,9320 fluorescence intensity (a.u.)
18,GTCGCCAACCGTTTTCTCCTCCTCGCTCTCTCCATGTGATCGGAGTCACCTAGTGCAG,9520 fluorescence intensity (a.u.)
19,GATCCCACATTCCTACTGTTCTTTTTGTCACGACCAAAATCGGAGTCACCTAGTGCAG,12700 fluorescence intensity (a.u.)
20,GCTGTTGCACAAGTAGCATCACCAACCTCTCCCTGTCTATCGGAGTCACCTAGTGCAG,8110 fluorescence intensity (a.u.)
21,CATTCATCGTGCGTAGCAAATACTCCGTCCGTACATCTAACGGAGTCACCTAGTGCAG,8690 fluorescence intensity (a.u.)

row,Sequence,binding signal
1,TGCCTCCTTTTGTTTTGCGTCTCCTTATCAGAGTGGATTGCGGAGTCACCTAGTGCAG,8350 fluorescence intensity (a.u.)
2,AGGTCTTTTTCACGTCGCAACCATGGCTTCAAATTTTGCTCGGAGTCACCTAGTGCAG,11900 fluorescence intensity (a.u.)
3,TTCGTTTTACATCCGAGATATTTACGATTTTGGCCGATCGCGGAGTCACCTAGTGCAG,8700 fluorescence intensity (a.u.)
4,AGCACTCTTTTCTTGTCTTTTTTATTATGAACCGGTGGAGCGGAGTCACCTAGTGCAG,8250 fluorescence intensity (a.u.)
5,TTAGTCTATATTTAATACTTCAAATGTTTGTCCATATACTCGGAGTCACCTAGTGCAG,8070 fluorescence intensity (a.u.)
6,CTCTCCCGGTCGCGCCGCCATCTCCTCTCCCAATCGCGCGCGGAGTCACCTAGTGCAG,8860 fluorescence intensity (a.u.)
7,TTTAAACTGACACATGGGTCCCACCTTTTATTTTGCTTCCCGGAGTCACCTAGTGCAG,10700 fluorescence intensity (a.u.)
8,ACCACGGTCCACACTGCCCTGCCCTGCCCGGCTGCCCCTGCGGAGTCACCTAGTGCAG,11000 fluorescence intensity (a.u.)
9,TGGTTCAGCTTTGGTATCATCATGTCGTGTGCGCGCAGCGCGGAGTCACCTAGTGCAG,8650 fluorescence intensity (a.u.)
10,GACACGGCCTCCTCAGCTCCAGTTTCTTTATATCCCATGGCGGAGTCACCTAGTGCAG,8580 fluorescence intensity (a.u.)
11,ACATACCTCGTGCGGCCAGTCGCCTGTTACAAACTCCATTCGGAGTCACCTAGTGCAG,8270 fluorescence intensity (a.u.)
12,TATCAATTACATCTTTGTTTCCTTTTCAGTTCAATTGCATCGGAGTCACCTAGTGCAG,8860 fluorescence intensity (a.u.)
13,CACAGACACATTTGGTTAATTACATACCTTGTACACTTCACGGAGTCACCTAGTGCAG,8780 fluorescence intensity (a.u.)
14,TTTTTCCTATTCCTCTGTTTTTTCATTCCTACGATTCAAACGGAGTCACCTAGTGCAG,11100 fluorescence intensity (a.u.)
15,TTTACTCGTACTCCTTTTCATAGCGAGGGGCAAAGTGGGACGGAGTCACCTAGTGCAG,9130 fluorescence intensity (a.u.)
16,TTTTCCGGCACCACCAATCGGGCGGGGCGGTGTGTTACAGCGGAGTCACCTAGTGCAG,13000 fluorescence intensity (a.u.)
17,TCTTATTTTGACTTTTTGGCACTTGAGTTTATCTCTCTTGCGGAGTCACCTAGTGCAG,11500 fluorescence intensity (a.u.)
18,CACTCGCGCCACCCAATTGCACGCATTTACAATTCAATTCCGGAGTCACCTAGTGCAG,11400 fluorescence intensity (a.u.)
19,TTTCTTATTAACACCCTGTTTAATTTTTTATTTCTTATTTCGGAGTCACCTAGTGCAG,8480 fluorescence intensity (a.u.)
20,CACTTGGTAATTACTTCTACTATGTCATCCTTATCATAATCGGAGTCACCTAGTGCAG,15200 fluorescence intensity (a.u.)
21,CCACCCGCCTCGCCGAATCCGGGCCGTCCATTCCTCCGCTCGGAGTCACCTAGTGCAG,11800 fluorescence intensity (a.u.)

# Not a retest: an excerpt of the list.
row,Sequence,binding signal
8,ACCACGGTCCACACTGCCCTGCCCTGCCCGGCTGCCCCTGCGGAGTCACCTAGTGCAG,11000 fluorescence intensity (a.u.)
9,TGGTTCAGCTTTGGTATCATCATGTCGTGTGCGCGCAGCGCGGAGTCACCTAGTGCAG,8650 fluorescence intensity (a.u.)
